Reference: publication PMC8080764
For at least one entry, the source does not settle the construct or the ends of the probe. Where cells or extracts were used, other partners may take part. Negatives hold for the conditions tested. Where a protein sequence is shown, tags need not be part of it. A weaker result is weaker than the reference pair of the same experiment.

Molecular target: T1, SRF K165A (HA-SRF K165A) (UniProt P11831)
T1 sequence (looked up, limits assumed): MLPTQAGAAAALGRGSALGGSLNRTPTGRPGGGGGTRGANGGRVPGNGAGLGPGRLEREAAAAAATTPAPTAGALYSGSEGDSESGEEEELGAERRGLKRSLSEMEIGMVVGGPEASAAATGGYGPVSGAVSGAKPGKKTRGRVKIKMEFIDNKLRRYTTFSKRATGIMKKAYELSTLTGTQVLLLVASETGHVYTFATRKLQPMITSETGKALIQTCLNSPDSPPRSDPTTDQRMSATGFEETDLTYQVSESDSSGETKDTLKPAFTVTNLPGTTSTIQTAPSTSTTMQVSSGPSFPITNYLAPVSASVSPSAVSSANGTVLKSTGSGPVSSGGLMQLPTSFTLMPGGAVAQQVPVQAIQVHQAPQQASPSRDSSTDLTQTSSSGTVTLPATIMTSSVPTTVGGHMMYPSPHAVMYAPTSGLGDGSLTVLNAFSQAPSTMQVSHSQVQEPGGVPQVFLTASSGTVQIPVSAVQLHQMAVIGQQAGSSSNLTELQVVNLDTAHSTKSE
Assay: EMSA
Settings: LightShift chemiluminescent EMSA kit binding buffer (composition, salt and pH not given), 30 min at room temperature; 5% PAGE, 0.5x TBE, 100 V, 1 h; protein in an extract; protein details: HA; label: 3' biotin

Row | Sequence | binding result
1 | GACACCCAAATATGGCTTGG (double strand) [Acta1 SRE near (proximal SRE)] | binds more weakly
2 | AGAACCCATAAATGGGGTGC (double strand) [Acta1 SRE far (distal SRE)] | no binding
